Results as given in PMC5494190.
These are yes or no findings as the source states them, for the method shown. In cells and extracts the contact can be indirect. Some binding calls cover weakened binding; strength is not graded here. For part of these data: Where a sequence is shown, tags or fusion partners need not be part of it.

Protein sequences, listed by entry. Tags and fused reporters are not part of them.
UniProt Q16186: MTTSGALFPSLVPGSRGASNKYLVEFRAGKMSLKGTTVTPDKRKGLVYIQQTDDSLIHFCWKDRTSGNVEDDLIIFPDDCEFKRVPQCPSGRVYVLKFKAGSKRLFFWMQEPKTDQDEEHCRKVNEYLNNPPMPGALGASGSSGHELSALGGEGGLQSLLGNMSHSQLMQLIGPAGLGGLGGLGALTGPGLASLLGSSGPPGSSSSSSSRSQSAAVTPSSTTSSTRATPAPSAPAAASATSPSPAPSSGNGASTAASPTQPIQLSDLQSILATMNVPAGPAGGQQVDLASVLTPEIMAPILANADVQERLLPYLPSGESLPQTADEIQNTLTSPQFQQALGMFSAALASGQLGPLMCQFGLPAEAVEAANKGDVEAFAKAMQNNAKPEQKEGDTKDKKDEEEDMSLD

Columns and labels:
[1] = target: T1, FLAG-EGFP-hRpn2 (940–947) (human); assay: co-IP; anti-FLAG immunoprecipitation from lysates of HCT116 cells expressing FLAG-EGFP constructs; immunoblot for endogenous hRpn13
T1 sequence: QEPEPPEP

[2] = target: hRpt3 (a member of the proteasome ATPase ring) (human (endogenous in HCT116)) (UniProt P43686); assay: co-IP; anti-hRpt3 immunoprecipitation of proteasomes from lysates of HCT116 cells treated with 1 μM RA190 for 24 h or DMSO; immunoblot
[3] = target: hRpt3 (a member of the proteasome ATPase ring) (human (endogenous in HCT116)) (UniProt P43686); assay: co-IP; anti-hRpt3 immunoprecipitation from lysates of HCT116 cells expressing FLAG-EGFP (control) or FLAG-EGFP-hRpn2 (940–953); immunoblot for hRpn13

binding [1]: no binding | binding [2]: binds | binding [3]: binds
Substance: endogenous hRpn13 (from UniProt Q16186 1-407)
